PubChem BioAssay AID1508597 | Cure First, 2020
In all, the deposit lists about 2,100 reagents; shown is an unselected part. 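Calls flag viability under 80% in either arm, not effects specific to rucaparib; the reference for percent is not stated.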 Some reagents were tested in more than one well and are listed for each. The record does not give: the 100% reference.

- Test: 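Knock-downs altering ovarian cancer cell survival with or without PARP inhibitor rucaparib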 (primary screen)
- System: human ovarian carcinoma lines grown from tumours: OCI-P5x (papillary serous) and OCI-C5x (clear cell)
- Reagent: siRNA pool against human genes, 1.25 pmol siRNA per well
- Timing: 72 h or 96 h, depending on the cell culture
- Challenge: rucaparib 20 µM (about IC30) or vehicle, present until read-out
- Measured: 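Luminescent ATP-based viability assay read 72 or 96 h after transfection, depending on culture, given as normalised percent viability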
- Scale: viability, normalised: higher = more viable cells remaining
- Call rule: 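a well counts as a hit if its normalised viability is under 80 percent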
- Calls: active = viability under 80%; inactive = viability 80% or more

no.	Gene	rucaparib or vehicle	cell line	technical replicate	viability, normalised (%)	Outcome
1	TFAM	Rucaparib	OCI-C5x (clear cell)	1	68	active
2	TFAM	Rucaparib	OCI-C5x (clear cell)	2	44.5	active
3	TFAM	Rucaparib	OCI-C5x (clear cell)	3	68	active
4	TFAM	Rucaparib	OCI-P5x (serous)	1	66.7	active
5	TFAM	Rucaparib	OCI-P5x (serous)	2	77	active
6	TFAM	Rucaparib	OCI-P5x (serous)	3	66	active
7	TFAM	Vehicle	OCI-C5x (clear cell)	1	46.8	active
8	TFAM	Vehicle	OCI-C5x (clear cell)	2	51	active
9	TFAM	Vehicle	OCI-C5x (clear cell)	3	63.1	active
10	TFAM	Vehicle	OCI-P5x (serous)	1	74.7	active
11	TFAM	Vehicle	OCI-P5x (serous)	2	76.5	active
12	TFAM	Vehicle	OCI-P5x (serous)	3	70.6	active
13	TTBK2	Rucaparib	OCI-C5x (clear cell)	1	77.1	active
14	TTBK2	Rucaparib	OCI-C5x (clear cell)	2	73.4	active
15	TTBK2	Rucaparib	OCI-C5x (clear cell)	3	50.1	active
16	TTBK2	Rucaparib	OCI-P5x (serous)	1	87.1	inactive
17	TTBK2	Rucaparib	OCI-P5x (serous)	2	85.9	inactive
18	TTBK2	Rucaparib	OCI-P5x (serous)	3	95.4	inactive
19	TTBK2	Vehicle	OCI-C5x (clear cell)	1	49.4	active
20	TTBK2	Vehicle	OCI-C5x (clear cell)	2	59.5	active
21	TTBK2	Vehicle	OCI-C5x (clear cell)	3	55.1	active
22	TTBK2	Vehicle	OCI-P5x (serous)	1	83	inactive
23	TTBK2	Vehicle	OCI-P5x (serous)	2	77.1	active
24	TTBK2	Vehicle	OCI-P5x (serous)	3	67.9	active
25	PKMYT1	Rucaparib	OCI-C5x (clear cell)	1	34.3	active
26	PKMYT1	Rucaparib	OCI-C5x (clear cell)	2	48.9	active
27	PKMYT1	Rucaparib	OCI-C5x (clear cell)	3	59.4	active
28	PKMYT1	Rucaparib	OCI-P5x (serous)	1	102	inactive
29	PKMYT1	Rucaparib	OCI-P5x (serous)	2	95.4	inactive
30	PKMYT1	Rucaparib	OCI-P5x (serous)	3	101	inactive
31	PKMYT1	Vehicle	OCI-C5x (clear cell)	1	63.2	active
32	PKMYT1	Vehicle	OCI-C5x (clear cell)	2	50.6	active
33	PKMYT1	Vehicle	OCI-C5x (clear cell)	3	49	active
34	PKMYT1	Vehicle	OCI-P5x (serous)	1	104	inactive
35	PKMYT1	Vehicle	OCI-P5x (serous)	2	94.9	inactive
36	PKMYT1	Vehicle	OCI-P5x (serous)	3	105	inactive
37	PER1	Rucaparib	OCI-C5x (clear cell)	1	32.6	active
38	PER1	Rucaparib	OCI-C5x (clear cell)	1	44.4	active
39	PER1	Rucaparib	OCI-C5x (clear cell)	2	40.1	active
40	PER1	Rucaparib	OCI-C5x (clear cell)	2	34.1	active
41	PER1	Rucaparib	OCI-C5x (clear cell)	3	36.6	active
42	PER1	Rucaparib	OCI-C5x (clear cell)	3	47.6	active
43	PER1	Rucaparib	OCI-P5x (serous)	1	52.2	active
44	PER1	Rucaparib	OCI-P5x (serous)	1	70.4	active
45	PER1	Rucaparib	OCI-P5x (serous)	2	48.4	active
46	PER1	Rucaparib	OCI-P5x (serous)	3	53.4	active
47	PER1	Rucaparib	OCI-P5x (serous)	3	56.9	active
48	PER1	Vehicle	OCI-C5x (clear cell)	1	53.1	active
49	PER1	Vehicle	OCI-C5x (clear cell)	1	47.8	active
50	PER1	Vehicle	OCI-C5x (clear cell)	2	32.1	active
51	PER1	Vehicle	OCI-C5x (clear cell)	2	45	active
52	PER1	Vehicle	OCI-C5x (clear cell)	3	37.4	active
53	PER1	Vehicle	OCI-C5x (clear cell)	3	54.7	active
54	PER1	Vehicle	OCI-P5x (serous)	1	63.5	active
55	PER1	Vehicle	OCI-P5x (serous)	1	56.5	active
56	PER1	Vehicle	OCI-P5x (serous)	2	53.7	active
57	PER1	Vehicle	OCI-P5x (serous)	2	72.6	active
58	PER1	Vehicle	OCI-P5x (serous)	3	52	active
59	PER1	Vehicle	OCI-P5x (serous)	3	55.8	active
